The results in this text go back to the supplement of paper PMC4256282, “Profound Activity of the Anti-cancer Drug Bortezomib against Echinococcus multilocularis Metacestodes Identifies the Proteasome as a Novel Drug Target for Cestodes” (PLoS Neglected Tropical Diseases, 2014).

Counter-ions that a name gives are not always drawn. The list shows a part of the results. Repeats are few or missing, and single values can be far off.

The test system of this assay is Echinococcus multilocularis metacestodes. Nature of the assay: vesicle damage (PGI release) relative to positive control DB1127 at 20 µM, DMSO subtracted; higher = more parasite damage. Conditions: treatment time 5 days.
As to `CC=CC1=C(C(=O)O)N2C(=O)[C@@H](NC(=O)[C@H](N)c3ccc(O)cc3)[C@H]2SC1` [Cefprozil hydrate], the vesicle damage is -0.347%.
With `Nc1ncn([C@H]2C[C@H](O)[C@@H](CO)O2)c(=O)n1` [Decitabine] the figure was 0.352%; with `CCCCCCCCCCC[C@@H](C[C@@H]1OC(=O)[C@H]1CCCCCC)OC(=O)[C@H](CC(C)C)NC=O` [Orlistat], -1.82%; with `Cc1[nH]c(=O)c(C#N)cc1-c1ccncc1` [Milrinone], 1.79%.
With `NCCc1ccc(O)c(O)c1` [Dopamine hydrochloride] the figure was 0.815%; with `COc1cc([C@@H]2c3cc4c(cc3[C@@H](O[C@@H]3O[C@@H]5CO[C@@H](C)O[C@H]5[C@H](O)[C@H]3O)[C@H]3COC(=O)[C@H]23)OCO4)cc(OC)c1O` [Etoposide], -1.1%; with `CCCCCCOC(=O)NC(=N)c1ccc(NCc2nc3cc(C(=O)N(CCC(=O)OCC)c4ccccn4)ccc3n2C)cc1`, 3.7%.
For the compound `CN1CCN(C2=Nc3cc(Cl)ccc3Nc3ccccc32)CC1` [Clozapine], the vesicle damage was found to be 1.79%.
With `N[C@@H](CSCCCO)C(=O)O` [Fudosteine] the figure was 1.07%; with `CN/C(=N\CCSCc1nc[nH]c1C)NC#N` [Cimetidine], -12.8%; with `COc1c(C)c2c(c(O)c1C/C=C(\C)CCC(=O)OCCN1CCOCC1)C(=O)OC2` [Mycophenolate mofetil], -1.81%.
With `CS(=O)(=O)OCCCCOS(C)(=O)=O` [Busulfan] the figure was -1.6%.
With `O=C(NCCO[N+](=O)[O-])c1cccnc1` [Nicorandil] the figure was -12.3%; with `Nc1ccc(S(N)(=O)=O)cc1` [Sulfanilamide], 2.93%; with `Cc1cnc(C(=O)O)c[n+]1[O-]` [Acipimox], -14.9%.
In the case of `COc1cc2ncnc(Nc3ccc(F)c(Cl)c3)c2cc1OCCCN1CCOCC1` [Gefitinib], the vesicle damage was -3.07%.
With `Cc1c(OCC(F)(F)F)ccnc1C[S+]([O-])c1nc2ccccc2[nH]1` (centres undefined) [Lansoprazole], the vesicle damage is -1.34%.
With `CN1CCN(c2c(F)cc3c(=O)c(C(=O)O)cn(CCF)c3c2F)CC1` [Fleroxacin] the figure was 0.993%; with `Nc1ncnc2c1ncn2[C@@H]1O[C@H](CO)[C@@H](O)[C@H]1O` [Adenosine], -2.42%; with `COc1ccc(Cl)cc1C(=O)NCCc1ccc(S(=O)(=O)NC(=O)NC2CCCCC2)cc1` [Glyburide], -11%.
With `NC(=O)c1ncn([C@@H]2O[C@H](CO)[C@@H](O)[C@H]2O)n1` [Ribavirin] the figure was 1.09%; with `CNC[C@H](O)c1ccc(O)c(O)c1` [Epinephrine bitartrate], -9.8%; with `C[C@H](N[C@@H](CCc1ccccc1)C(=O)O)C(=O)N1CCC[C@H]1C(=O)O` [Enalaprilat dihydrate], -2.58%.
With `COC(=O)N[C@H](C(=O)N[C@@H](Cc1ccccc1)[C@@H](O)CN(Cc1ccc(-c2ccccn2)cc1)NC(=O)[C@@H](NC(=O)OC)C(C)(C)C)C(C)(C)C` [Atazanavir sulfate] the figure was 2.79%; with `COc1ccc2c(c1)c(CC(=O)O)c(C)n2C(=O)c1ccc(Cl)cc1` [Indomethacin], -15.1%; with `CC(C)(C)C(=O)OCOP(=O)(COCCn1cnc2c(N)ncnc21)OCOC(=O)C(C)(C)C` [Adefovir dipivoxil], 3.35%.
`COC(=O)C1=C(C)NC(C)=C(C(=O)OCC(C)C)C1c1ccccc1[N+](=O)[O-]` (centres undefined) [Nisoldipine]: the vesicle damage is -9.37%.
For the compound `CN1CCN2c3ccccc3Cc3ccccc3C2C1` (centres undefined) [Mianserin hydrochloride], the vesicle damage is -8.85%.
With `C#Cc1cccc(Nc2ncnc3cc(OCCOC)c(OCCO)cc23)c1` the figure was 2.69%; with `Cc1cc(C(C)(C)C)c(O)c(C)c1CC1=NCCN1` [Oxymetazoline hcl], -1.14%; with `O=C(c1ccc(OCCN2CCCCC2)cc1)c1c(-c2ccc(O)cc2)sc2cc(O)ccc12` [Evista], -1.58%.
`C[C@]12C=CC(=O)C=C1CC[C@@H]1[C@@H]2C(=O)C[C@@]2(C)[C@H]1CC[C@]2(O)C(=O)CO` [Prednisone]: the vesicle damage was -3.53%.
Consider `C[N+]1(C)[C@@H]2C[C@@H](OC(=O)C(O)(c3cccs3)c3cccs3)C[C@H]1[C@@H]1O[C@@H]12` [Tiotropium Bromide hydrate], for which the vesicle damage was 0.0453%.
With `CC(C)[N+]1(C)[C@@H]2CC[C@H]1C[C@@H](OC(=O)C(CO)c1ccccc1)C2` (some centres undefined) [Ipratropium bromide] the figure was -3.74%.
With `COc1ccc(-c2ccc3cc(C(=O)O)ccc3c2)cc1C12CC3CC(CC(C3)C1)C2` [Adapalene] the figure was -0.608%; with `CCC1(c2ccccc2)C(=O)NCNC1=O` [Primidone], -11%; with `Cc1ccc(NC(=O)c2ccc(CN3CCN(C)CC3)cc2)cc1Nc1nc(-c2cccnc2)cs1` [Masitinib], -3.53%.
`OCCOCCN1CCN(C2=Nc3ccccc3Sc3ccccc32)CC1` [Quetiapine fumarate]: the vesicle damage was -8.85%.
Regarding `COc1ccc2[nH]c([S+]([O-])Cc3ncc(C)c(OC)c3C)nc2c1` (centres undefined) [Omeprazole], the vesicle damage was -0.281%.
